Data: the supplement of paper PMC10849652
This is one part of the list.

Amino acid sequences for entries named in this document (tags omitted). A change or cut given only in a name is not applied to a line headed by its entry.
UniProt Q6IAA8, whole entry, looked up: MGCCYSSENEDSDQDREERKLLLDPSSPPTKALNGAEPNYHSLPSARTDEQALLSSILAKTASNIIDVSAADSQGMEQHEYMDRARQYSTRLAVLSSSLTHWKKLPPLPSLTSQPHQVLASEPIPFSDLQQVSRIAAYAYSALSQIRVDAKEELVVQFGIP
UniProt Q9UN81: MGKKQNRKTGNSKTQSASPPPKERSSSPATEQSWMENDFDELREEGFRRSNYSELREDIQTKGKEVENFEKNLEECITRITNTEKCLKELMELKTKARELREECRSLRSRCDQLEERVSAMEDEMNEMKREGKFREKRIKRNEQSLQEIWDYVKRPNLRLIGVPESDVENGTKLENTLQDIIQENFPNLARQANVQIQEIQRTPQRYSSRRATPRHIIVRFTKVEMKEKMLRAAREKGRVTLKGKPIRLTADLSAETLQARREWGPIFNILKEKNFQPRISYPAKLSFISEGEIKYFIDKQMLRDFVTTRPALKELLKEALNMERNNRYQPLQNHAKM
UniProt Q8IVT5: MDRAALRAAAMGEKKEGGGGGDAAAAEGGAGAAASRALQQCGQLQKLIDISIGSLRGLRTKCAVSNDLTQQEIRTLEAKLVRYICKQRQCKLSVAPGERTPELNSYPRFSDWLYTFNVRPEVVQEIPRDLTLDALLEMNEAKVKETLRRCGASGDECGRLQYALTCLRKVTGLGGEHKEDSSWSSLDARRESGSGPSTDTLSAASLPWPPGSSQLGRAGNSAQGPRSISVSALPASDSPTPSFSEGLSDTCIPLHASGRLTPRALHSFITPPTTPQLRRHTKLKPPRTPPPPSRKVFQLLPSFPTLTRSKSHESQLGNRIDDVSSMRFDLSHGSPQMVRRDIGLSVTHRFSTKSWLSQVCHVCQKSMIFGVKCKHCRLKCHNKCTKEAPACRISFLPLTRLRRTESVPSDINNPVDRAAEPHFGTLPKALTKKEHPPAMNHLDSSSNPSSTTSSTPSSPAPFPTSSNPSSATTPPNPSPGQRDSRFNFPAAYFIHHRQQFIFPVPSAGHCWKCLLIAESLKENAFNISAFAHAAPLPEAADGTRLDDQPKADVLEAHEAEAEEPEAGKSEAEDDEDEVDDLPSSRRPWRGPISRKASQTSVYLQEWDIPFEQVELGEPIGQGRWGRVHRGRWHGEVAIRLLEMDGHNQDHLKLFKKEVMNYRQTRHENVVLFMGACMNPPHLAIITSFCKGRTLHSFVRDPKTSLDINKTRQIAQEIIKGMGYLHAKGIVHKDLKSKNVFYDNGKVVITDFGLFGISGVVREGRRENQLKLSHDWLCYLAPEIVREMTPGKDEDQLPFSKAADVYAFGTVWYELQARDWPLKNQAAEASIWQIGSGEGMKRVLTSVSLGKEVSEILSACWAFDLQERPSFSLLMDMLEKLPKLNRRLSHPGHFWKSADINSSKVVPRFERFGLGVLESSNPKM
UniProt O43813, whole entry, looked up: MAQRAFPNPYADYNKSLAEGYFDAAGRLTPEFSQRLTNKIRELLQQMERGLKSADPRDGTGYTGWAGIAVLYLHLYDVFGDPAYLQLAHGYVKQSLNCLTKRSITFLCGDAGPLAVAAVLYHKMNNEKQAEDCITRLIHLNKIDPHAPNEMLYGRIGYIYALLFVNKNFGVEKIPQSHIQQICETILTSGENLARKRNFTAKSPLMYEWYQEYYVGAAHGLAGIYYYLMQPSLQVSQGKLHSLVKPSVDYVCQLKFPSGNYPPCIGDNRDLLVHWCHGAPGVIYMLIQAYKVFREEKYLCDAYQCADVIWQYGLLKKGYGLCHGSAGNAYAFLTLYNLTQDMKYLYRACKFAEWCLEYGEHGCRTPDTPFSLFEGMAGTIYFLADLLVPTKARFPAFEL
UniProt Q8N371: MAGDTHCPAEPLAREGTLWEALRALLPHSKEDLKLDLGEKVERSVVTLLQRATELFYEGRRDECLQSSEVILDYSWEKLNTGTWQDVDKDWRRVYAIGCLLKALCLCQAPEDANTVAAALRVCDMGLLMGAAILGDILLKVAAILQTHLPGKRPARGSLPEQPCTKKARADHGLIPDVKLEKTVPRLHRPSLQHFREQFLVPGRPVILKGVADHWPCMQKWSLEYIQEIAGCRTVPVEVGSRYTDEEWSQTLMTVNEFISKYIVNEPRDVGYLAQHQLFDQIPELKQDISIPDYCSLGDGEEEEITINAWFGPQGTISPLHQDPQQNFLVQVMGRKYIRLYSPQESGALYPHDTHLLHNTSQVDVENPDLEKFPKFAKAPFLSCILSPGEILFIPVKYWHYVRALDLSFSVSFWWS
UniProt Q96EK9: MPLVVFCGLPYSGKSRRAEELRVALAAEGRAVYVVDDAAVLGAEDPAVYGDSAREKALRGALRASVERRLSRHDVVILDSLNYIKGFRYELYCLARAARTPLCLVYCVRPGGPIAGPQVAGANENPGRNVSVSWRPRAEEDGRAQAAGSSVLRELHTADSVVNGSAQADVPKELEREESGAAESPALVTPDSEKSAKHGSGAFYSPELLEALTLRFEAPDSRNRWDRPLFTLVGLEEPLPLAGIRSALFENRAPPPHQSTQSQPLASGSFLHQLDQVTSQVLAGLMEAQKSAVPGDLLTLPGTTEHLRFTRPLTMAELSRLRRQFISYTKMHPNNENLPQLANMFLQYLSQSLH
UniProt Q1ED39: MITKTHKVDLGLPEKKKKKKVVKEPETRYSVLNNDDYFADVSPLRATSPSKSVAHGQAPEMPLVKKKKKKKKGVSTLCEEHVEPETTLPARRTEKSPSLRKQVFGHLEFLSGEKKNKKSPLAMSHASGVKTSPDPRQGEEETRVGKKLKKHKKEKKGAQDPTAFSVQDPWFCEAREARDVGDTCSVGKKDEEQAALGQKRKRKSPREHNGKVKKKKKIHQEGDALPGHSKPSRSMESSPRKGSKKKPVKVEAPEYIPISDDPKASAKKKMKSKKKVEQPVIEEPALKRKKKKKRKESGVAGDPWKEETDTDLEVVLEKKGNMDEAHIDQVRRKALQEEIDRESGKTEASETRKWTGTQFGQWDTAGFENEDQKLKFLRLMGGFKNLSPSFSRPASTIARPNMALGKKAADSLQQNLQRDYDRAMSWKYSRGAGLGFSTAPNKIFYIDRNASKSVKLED
UniProt Q12840: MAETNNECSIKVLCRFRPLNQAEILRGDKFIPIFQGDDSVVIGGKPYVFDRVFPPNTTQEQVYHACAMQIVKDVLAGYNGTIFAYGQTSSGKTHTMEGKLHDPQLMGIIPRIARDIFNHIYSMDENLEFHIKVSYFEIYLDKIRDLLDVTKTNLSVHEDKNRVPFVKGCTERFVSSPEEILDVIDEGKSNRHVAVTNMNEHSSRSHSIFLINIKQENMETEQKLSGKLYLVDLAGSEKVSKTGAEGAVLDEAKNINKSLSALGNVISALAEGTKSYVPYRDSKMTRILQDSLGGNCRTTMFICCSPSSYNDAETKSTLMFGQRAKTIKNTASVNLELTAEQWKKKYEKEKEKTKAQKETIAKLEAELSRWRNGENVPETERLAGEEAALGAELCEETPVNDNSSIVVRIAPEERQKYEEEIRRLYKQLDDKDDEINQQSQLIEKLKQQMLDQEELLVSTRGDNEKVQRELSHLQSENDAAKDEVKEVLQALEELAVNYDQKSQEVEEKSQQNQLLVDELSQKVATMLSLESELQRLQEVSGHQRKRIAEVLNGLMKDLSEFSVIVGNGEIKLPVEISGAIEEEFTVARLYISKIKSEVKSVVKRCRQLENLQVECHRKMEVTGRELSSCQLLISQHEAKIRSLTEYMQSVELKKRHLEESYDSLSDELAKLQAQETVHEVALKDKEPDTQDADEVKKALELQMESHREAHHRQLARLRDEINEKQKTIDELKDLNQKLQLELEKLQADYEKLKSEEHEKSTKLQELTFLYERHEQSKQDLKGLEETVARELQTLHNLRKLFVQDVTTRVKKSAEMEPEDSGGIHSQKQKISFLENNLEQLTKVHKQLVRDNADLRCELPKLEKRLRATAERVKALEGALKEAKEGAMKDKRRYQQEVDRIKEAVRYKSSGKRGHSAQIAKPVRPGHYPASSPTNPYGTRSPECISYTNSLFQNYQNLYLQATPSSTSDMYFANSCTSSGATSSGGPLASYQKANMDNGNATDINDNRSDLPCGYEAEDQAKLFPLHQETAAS
UniProt Q96A73: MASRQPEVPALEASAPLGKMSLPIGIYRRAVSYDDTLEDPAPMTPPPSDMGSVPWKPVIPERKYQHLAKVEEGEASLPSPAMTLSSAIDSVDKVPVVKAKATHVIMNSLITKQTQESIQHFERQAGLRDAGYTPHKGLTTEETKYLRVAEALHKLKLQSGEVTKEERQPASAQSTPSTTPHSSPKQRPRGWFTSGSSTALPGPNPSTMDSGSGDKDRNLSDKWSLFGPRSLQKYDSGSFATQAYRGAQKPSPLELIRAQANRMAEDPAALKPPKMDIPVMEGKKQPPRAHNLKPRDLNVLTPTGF
UniProt Q9H1H9: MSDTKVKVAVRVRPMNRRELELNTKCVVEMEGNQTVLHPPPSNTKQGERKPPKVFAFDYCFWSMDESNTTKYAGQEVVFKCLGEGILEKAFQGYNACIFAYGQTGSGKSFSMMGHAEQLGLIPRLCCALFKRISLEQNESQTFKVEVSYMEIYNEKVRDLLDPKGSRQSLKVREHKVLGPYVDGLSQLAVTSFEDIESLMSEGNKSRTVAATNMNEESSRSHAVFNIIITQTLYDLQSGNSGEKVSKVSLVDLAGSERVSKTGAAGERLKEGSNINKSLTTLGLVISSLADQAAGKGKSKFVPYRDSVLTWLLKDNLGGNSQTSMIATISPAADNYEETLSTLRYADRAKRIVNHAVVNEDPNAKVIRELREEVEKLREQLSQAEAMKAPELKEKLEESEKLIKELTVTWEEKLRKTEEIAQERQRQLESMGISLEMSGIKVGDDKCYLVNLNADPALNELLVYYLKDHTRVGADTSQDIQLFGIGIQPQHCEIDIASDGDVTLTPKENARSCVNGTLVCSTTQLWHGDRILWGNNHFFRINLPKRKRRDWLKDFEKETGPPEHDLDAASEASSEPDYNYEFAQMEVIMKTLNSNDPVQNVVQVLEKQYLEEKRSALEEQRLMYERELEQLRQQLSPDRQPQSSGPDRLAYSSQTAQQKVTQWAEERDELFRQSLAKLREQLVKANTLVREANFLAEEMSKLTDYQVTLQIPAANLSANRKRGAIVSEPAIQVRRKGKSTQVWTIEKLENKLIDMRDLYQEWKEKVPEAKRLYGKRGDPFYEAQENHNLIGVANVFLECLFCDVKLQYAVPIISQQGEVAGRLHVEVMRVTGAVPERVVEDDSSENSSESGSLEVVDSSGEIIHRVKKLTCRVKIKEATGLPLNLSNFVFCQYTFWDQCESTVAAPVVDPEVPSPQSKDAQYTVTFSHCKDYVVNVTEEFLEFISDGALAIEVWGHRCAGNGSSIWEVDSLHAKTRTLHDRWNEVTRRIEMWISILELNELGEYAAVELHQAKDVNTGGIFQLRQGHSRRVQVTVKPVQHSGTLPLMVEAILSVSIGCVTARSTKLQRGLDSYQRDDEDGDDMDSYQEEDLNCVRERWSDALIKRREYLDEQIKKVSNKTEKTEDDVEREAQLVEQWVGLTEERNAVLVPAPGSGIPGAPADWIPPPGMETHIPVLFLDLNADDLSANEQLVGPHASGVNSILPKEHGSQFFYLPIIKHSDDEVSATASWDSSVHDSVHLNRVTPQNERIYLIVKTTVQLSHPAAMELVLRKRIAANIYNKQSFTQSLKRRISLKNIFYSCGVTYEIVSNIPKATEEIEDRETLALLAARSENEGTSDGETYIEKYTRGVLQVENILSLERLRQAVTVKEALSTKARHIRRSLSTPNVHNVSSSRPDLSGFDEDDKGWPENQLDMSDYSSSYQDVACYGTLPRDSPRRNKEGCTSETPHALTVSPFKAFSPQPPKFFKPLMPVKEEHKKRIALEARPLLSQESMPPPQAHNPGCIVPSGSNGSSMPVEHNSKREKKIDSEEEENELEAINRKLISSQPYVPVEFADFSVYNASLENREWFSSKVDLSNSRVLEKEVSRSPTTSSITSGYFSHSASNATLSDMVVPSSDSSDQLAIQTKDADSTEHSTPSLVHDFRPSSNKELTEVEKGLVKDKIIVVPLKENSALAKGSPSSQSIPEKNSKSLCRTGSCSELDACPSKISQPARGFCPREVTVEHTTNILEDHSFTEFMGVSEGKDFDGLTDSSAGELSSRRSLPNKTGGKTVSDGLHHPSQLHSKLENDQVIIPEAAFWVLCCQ
UniProt Q9Y448: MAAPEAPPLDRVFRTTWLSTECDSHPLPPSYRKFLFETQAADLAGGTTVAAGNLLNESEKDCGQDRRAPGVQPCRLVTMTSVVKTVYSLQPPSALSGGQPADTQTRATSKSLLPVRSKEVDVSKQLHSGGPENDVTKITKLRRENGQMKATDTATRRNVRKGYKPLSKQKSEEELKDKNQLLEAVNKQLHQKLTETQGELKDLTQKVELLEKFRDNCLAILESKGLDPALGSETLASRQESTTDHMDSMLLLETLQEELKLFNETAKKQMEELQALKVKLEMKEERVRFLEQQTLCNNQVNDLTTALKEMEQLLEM

These targets were tested with C[C@H](Nc1ncnc2nc[nH]c12)c1cc2cccc(Cl)c2c(=O)n1-c1ccccc1 [duvelisib] (assay: log2 fold change, soluble protein after heating vs DMSO (PISA); higher = thermal stabilisation; K562 lysate, 10 uM; active = over 0.2 and 3.5 SD of the protein, either way, in both replicates (recomputed)).
In short: (§1)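 Soluble protein was defined as the supernatant remaining after 21,000xg for 90 min, following pooling of heated aliquots and adjustment to 0.5% NP-40 at 4°C. Before that, crude K562 extract at 1 mg/mL protein in PBS pH 7.4 with 1 mM MgCl2 was treated with 10 μM compound for 30 min and heated for 3 min across 48°C-58°C. Quantification used TMTpro 16plex LC-MS/MS with channel sums equalised, and values are log-two fold changes in thermal stability relative to solvent controls from duplicates.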

log2 fold change, inactive:
LAMTOR1 (UniProt Q6IAA8) 0.021, KHK isoform 2 (UniProt P50053) 0, KNL1 (UniProt Q8NG31) -0.001, LAMB1 (UniProt P07942) -0.02, KIF4A (UniProt O95239) -0.029, KHDRBS1 (UniProt Q07666) 0.005, L1RE1 (UniProt Q9UN81) -0.005, LARP7 isoform 3 (UniProt Q4G0J3) 0.012, KLC4 isoform 3 (UniProt Q9NSK0) 0.029, L2HGDH (UniProt Q9H9P8) -0.024, KSR1 (UniProt Q8IVT5) -0.026, KIAA0930 isoform 2 (UniProt Q6ICG6) -0.037, LACTB2 (UniProt Q53H82) 0.01, LANCL1 (UniProt O43813) -0.001, LAMP2 (UniProt P13473) 0.05, KHSRP (UniProt Q92945) 0.014, KDM8 isoform 3 (UniProt Q8N371) -0.012, KLHL18 (UniProt O94889) 0.032, KPTN (UniProt Q9Y664) -0.013, KIF15 (UniProt Q9NS87) -0.002, KYAT3 (UniProt Q6YP21) 0.008, KIF3A (UniProt Q9Y496) 0, KTI12 (UniProt Q96EK9) 0.028, LAMTOR2 (UniProt Q9Y2Q5) 0.018, KIF5B (UniProt P33176) -0.031, KIF23 isoform 2 (UniProt Q02241) -0.019, KPNA1 (UniProt P52294) 0, KPNA3 (UniProt O00505) 0.06, KPNA2 (UniProt P52292) 0.011, LAMTOR5 (UniProt O43504) -0.048, KNOP1 (UniProt Q1ED39) 0.022, KIF5A (UniProt Q12840) 0.021, KDM5B isoform 2 (UniProt Q9UGL1) 0, KIAA1191 (UniProt Q96A73) -0.045, KLC2 (UniProt Q9H0B6) -0.031, KIF13A isoform 4 (UniProt Q9H1H9) 0, KNSTRN (UniProt Q9Y448) -0.009, KRBA1 (UniProt A5PL33) 0.045, KXD1 (UniProt Q9BQD3) 0.079

The targets below were run with Cc1cc(Nc2cc(CN3CCOCC3)c3nc(C)c(Cc4ccc(Cl)cc4F)n3n2)n[nH]1 [gandotinib] in the same assay as above.
In short: as §1

log2 fold change, inactive:
LAMTOR1 (UniProt Q6IAA8) -0.012, KHK isoform 2 (UniProt P50053) -0.058, KNL1 (UniProt Q8NG31) -0.032, LAMB1 (UniProt P07942) 0.013, KIF4A (UniProt O95239) -0.061, KHDRBS1 (UniProt Q07666) -0.08, L1RE1 (UniProt Q9UN81) 0.041, LARP7 isoform 3 (UniProt Q4G0J3) 0.044, KLC4 isoform 3 (UniProt Q9NSK0) -0.074, L2HGDH (UniProt Q9H9P8) 0.047, KSR1 (UniProt Q8IVT5) -0.087, KIAA0930 isoform 2 (UniProt Q6ICG6) 0.055, LACTB2 (UniProt Q53H82) 0.014, LANCL1 (UniProt O43813) 0, LAMP2 (UniProt P13473) 0.08, KHSRP (UniProt Q92945) 0.015, KDM8 isoform 3 (UniProt Q8N371) 0.034, KLHL18 (UniProt O94889) 0.032, KPTN (UniProt Q9Y664) 0.077, KIF15 (UniProt Q9NS87) -0.017, KYAT3 (UniProt Q6YP21) 0.084, KIF3A (UniProt Q9Y496) -0.065, KTI12 (UniProt Q96EK9) -0.005, LAMTOR2 (UniProt Q9Y2Q5) 0.01, KIF5B (UniProt P33176) -0.072, KIF23 isoform 2 (UniProt Q02241) -0.007, KPNA1 (UniProt P52294) -0.068, KPNA3 (UniProt O00505) 0, KPNA2 (UniProt P52292) -0.066, LAMTOR5 (UniProt O43504) -0.071, KNOP1 (UniProt Q1ED39) 0.027, KIF5A (UniProt Q12840) -0.043, KDM5B isoform 2 (UniProt Q9UGL1) 0.257, KIAA1191 (UniProt Q96A73) 0.017, KLC2 (UniProt Q9H0B6) -0.145, KIF13A isoform 4 (UniProt Q9H1H9) -0.024, KNSTRN (UniProt Q9Y448) -0.024, KRBA1 (UniProt A5PL33) 0.05, KXD1 (UniProt Q9BQD3) 0.058
